Assay results taken from PubChem BioAssay AID1439 (NMMLSC, 2008).
Out of some 220,000 compounds screened, about 770 (0.35%) were called active. The inconclusive results got no clear call from the source; some entries with a clear call stand among them for comparison. Rule as the data show it: active = binding response below about 49% or above about 150%; inconclusive = no clear call, values can overlap the other calls; inactive = in between.

By UniProt entry, the sequences of proteins in these tests, tags left out.
UniProt P09471, whole entry, looked up: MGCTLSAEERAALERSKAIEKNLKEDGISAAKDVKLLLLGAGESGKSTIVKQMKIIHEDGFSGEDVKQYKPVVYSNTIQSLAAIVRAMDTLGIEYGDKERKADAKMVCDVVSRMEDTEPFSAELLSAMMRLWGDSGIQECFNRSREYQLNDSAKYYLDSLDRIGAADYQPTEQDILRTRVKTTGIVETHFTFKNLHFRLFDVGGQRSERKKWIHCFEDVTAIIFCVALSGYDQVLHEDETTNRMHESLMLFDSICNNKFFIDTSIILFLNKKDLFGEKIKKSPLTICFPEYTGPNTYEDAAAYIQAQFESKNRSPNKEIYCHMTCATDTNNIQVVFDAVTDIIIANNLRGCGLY

Each molecule was assayed against Guanine nucleotide-binding protein G(o) subunit alpha (Homo sapiens) (UniProt P09471) (assay: RGS7-Galphao binding modulators, primary screen, biochemical, multiplexed bead flow cytometry (AID 1439;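 also: fluorescent Galphao held in activated GDP-AlF4 state binding bead-coupled RGS7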)). Details: at 10 µM, actives lie on both sides.

Row | SMILES | binding response (% of control)
1 | O=C(/C=C/c1ccco1)Nc1ccccc1C(=O)Nc1cccc(C(=O)O)c1 | inconclusive: 120%
2 | Cc1cc(N/N=C\c2ccc(Br)cc2)nc(-n2nc(C)cc2C)n1 | inconclusive: -154%
3 | Nc1ccc2nn(-c3ccc(Cl)cc3)nc2c1 | inconclusive: 102%
4 | CC[C@H](C)[C@H](NC(=O)OCc1ccccc1)C(=O)Nc1ccc(NC(C)=O)cc1 | inconclusive: 99.4%
5 | COC(=O)c1c(C)[nH]c(-c2csc(N)n2)c1C | inactive: 100%
6 | CCN1CCCC1CNC(=O)CCc1nc(-c2ccc(C)cc2)no1 (stereo not given) | inactive: 101%
7 | Cc1nc2c(C)cccc2c2c1COC2 | inconclusive: 92.1%
8 | O=C(Nc1ccc(CN2CCCCC2)cc1)c1sc2ccccc2c1Cl | inconclusive: 122%
9 | Cc1nn(-c2ncc(C(F)(F)F)cc2Cl)c(=O)n1-c1ccc(F)cc1 | inactive: 95.3%
10 | CN(C)c1ccc(/C=N/NC(=O)c2ccc(NC(=O)c3ccccc3)cc2)cc1 | inconclusive: 124%
11 | NNC(=O)c1oc2nc(-c3ccccc3)cc(-c3ccco3)c2c1N | inconclusive: 112%
12 | Cn1c(SCc2ccc(C(C)(C)C)cc2)nnc1C1COc2ccccc2O1 (stereo not given) | inconclusive: 95%
13 | CN(CCO)CCOCCOc1cccc2ccccc12 | inconclusive: 91.5%
14 | C=C1SC(=Nc2ccccc2Cl)N(C(=O)c2sc3ccccc3c2Cl)C1(C)C | inconclusive: 297%
15 | O=C(NN1C(=O)C2C(C1=O)C1C=CC2C12CC2)c1ccccc1Cl (stereo not given) | inconclusive: 85.9%
16 | COC(=O)[C@@H]1C[C@H]2CC[C@H](O)C[C@H]2N1Cc1ccc(Cl)cc1 | inconclusive: 27.8%
17 | O=C(/C=C/c1c(Cl)nc2ccccn12)N1CCN(c2ccccc2F)CC1 | inconclusive: 108%
18 | NC(=O)CC(NC(=O)c1ccccc1)c1ccc(NCCc2ccc(F)cc2)c([N+](=O)[O-])c1 (stereo not given) | inconclusive: 112%
19 | CCOc1ccc(C2=C(C=Nc3c(C)n(C)n(-c4ccccc4)c3=O)C(c3ccc(F)cc3)c3ccccc3O2)cc1 (stereo not given) | inactive: 94.8%
20 | O=C(CCSc1ccc(Cl)cc1)N1CCN(c2ccc(O)cc2)CC1 | inconclusive: 103%
21 | Cc1cc(C)nc(-n2ncc3c2CC(C)CC3=O)n1 (stereo not given) | inconclusive: 34.5%
22 | CCOC(=O)C1(Cc2ccc(OC)cc2)CCN(C(=O)c2ccoc2C)CC1 | inconclusive: 95.4%
23 | C=CCN=C1S/C(=C\c2ccc(N(C)C)cc2)C(=O)N1CC=C | inconclusive: 119%
24 | Cc1cccc(NC(=S)NCCc2ccccn2)c1 | inconclusive: 162%
25 | CC(C)CC(=O)NC(=S)Nc1cccc2nsnc12 | inconclusive: 103%

Reprinted at random: 2 records from the list, in no set order.
Row | SMILES | binding response (% of control)
12 | Cn1c(SCc2ccc(C(C)(C)C)cc2)nnc1C1COc2ccccc2O1 (stereo not given) | inconclusive: 95%
15 | O=C(NN1C(=O)C2C(C1=O)C1C=CC2C12CC2)c1ccccc1Cl (stereo not given) | inconclusive: 85.9%
